In the supplement of paper PMC11150407 one finds cell viability data, which are given here for 99 molecules.

Usually cell viability stands for a read-out of living cells in per cent, often relative to untreated cells.

The campaign covered roughly 3,000 compounds. About 45 (2%) showed an effect of 50% or more. The list shows a part of the results.

The test system of this assay is MOLM1 and UCSD/AML1 (averaged). As to the kind of experiment: cell viability relative to DMSO control (POC); higher = less growth inhibition. The settings on record: 1 µM; 72 h. The procedure: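 Primary viability screen in the 3q26 EVI1-high AML cell lines MOLM1 and UCSD/AML1, compounds at 1 uM for 72 h. ATP CellTiter-Glo read-out given as percent viable over DMSO control (POC), averaged over duplicates. This mapping covers the TimTec NDL-3000 natural derivative library, whose compounds are identified by TimTec catalogue codes (ST...).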
Turning to `COc1cc(-c2cc(-c3ccc(C)cc3)c(C#N)c(=O)[nH]2)cc(OC)c1OC`, the cell viability stood at 109%.
On to `O=C(/C=C/c1ccccc1Cl)Oc1ccc(C=Nc2ccc(F)cc2)cc1`, for which the cell viability was determined as 104%.
In the case of `Cc1cccc(N2CCN(Cc3cc(=O)oc4cc(C)cc(C)c34)CC2C)c1` (centres undefined), the cell viability was found to be 109%.
The same measure for `CC(C)S[C@@H]1O[C@H](CO)[C@H](O)[C@H](O)[C@H]1O`: 102%; for `O=C(CSc1nc2ccccc2c(=O)[nH]1)c1ccc(Cl)c(Cl)c1`: 99.1%.
For `Cc1cc(Oc2cc(C)c(Cl)c(C)c2)nc(SCC(=O)c2ccccc2)n1`, the cell viability was found to be 98.7%.
`CC(C)C1=CC2=CCC3C(C)(C(=O)NCCNC(=O)C4(C)CCCC5(C)C6CCC(C(C)C)=CC6=CCC45)CCCC3(C)C2CC1` (centres undefined): the cell viability came out at 105%.
The same measure for `CC(C)CC(C(=O)O)N1C(=O)c2cccc3cccc(c23)C1=O` (centres undefined): 98.6%; for `Cc1[nH]nc2c1C(c1ccc(O)cc1)C(C#N)=C(N)O2` (centres undefined): 95.7%; for `COc1cc(C(=O)CN(Cc2ccccc2)Cc2ccccc2)ccc1O`: 90.2%.
The figure for `Cc1cc(=O)n(C)c(=O)n1Cc1ccccc1C#N` is 107%; for `CSc1cccc(NC(=O)CSc2nc3c(=O)[nH]cnc3n2C)c1` it is 98%.
In the case of `Cc1ccc(OCCn2cc(Br)c(=O)[nH]c2=O)cc1`, the cell viability came out at 89.3%.
Consider `COCCOC(=O)c1c(C)n(CCSc2ccccc2)c2c1cc(O)c1ccccc12`, for which the cell viability was 85.8%.
Consider `O=C(CCNc1ccc(F)cc1)c1cc2ccccc2oc1=O`, for which the cell viability turned out to be 102%.
The same measure for `Cc1cc2c(cc1S(=O)(=O)NC(Cc1c[nH]c3ccccc13)C(=O)O)NC(=O)CO2` (centres undefined): 102%.
For `COc1ccc(/C=C/C(=O)c2cccs2)cc1`, the cell viability was 96%.
`O=C(/C=C/c1ccccc1)c1ccc(O)c(O)c1O`: the cell viability came to 82.5%.
With `COc1ccc2c(c1)c(CC(=O)NCc1ccccn1)c(C)n2C(=O)c1ccc(Cl)cc1`, the cell viability was determined as 84.5%.
As for `O=C(O)Cn1c(=O)c2c(c3ccccc31)CCC2`, the cell viability is 91.2%.
The figure for `O=C(O)/C=C/c1cccc(NS(=O)(=O)Oc2ccc([N+](=O)[O-])cc2)c1` is 106%; for `COC(=O)C1(C)CCC2(C)CCC3(C)C(=CC(=O)C4C5(C)CCC(=O)C(C)(C)C5CCC43C)C2C1` (centres undefined) it is 95.7%; for `Cc1[nH]c2ccccc2c1CCNC(=O)c1cc([N+](=O)[O-])ccc1Cl` it is 94.4%.
Turning to `O=C(NCc1ccccc1)c1ccc(NCCC(=O)c2cc3ccccc3oc2=O)cc1`, the cell viability amounted to 91.9%.
The same measure for `CCOC(=O)c1ccc(O)c(OC)c1`: 96.1%.
In the case of `COc1ccc(C(=O)Nc2ccc(C(=O)c3nccn3C)cc2)cc1OC`, the cell viability came to 97.9%.
The figure for `COc1cc(C(=O)N2CCOCC2)cc(OC)c1OC` is 98.2%.
As for `CCCCC(=O)O[C@]1(C(=O)CO)[C@@H](C)C[C@H]2[C@@H]3CCC4=CC(=O)C=C[C@]4(C)[C@@]3(F)[C@@H](O)C[C@@]21C`, the cell viability stood at 68.6%.
The same measure for `Cc1ccc2c(CN3CCN(Cc4ccccc4F)CC3)cc(=O)oc2c1`: 97.1%; for `COC(=O)c1[nH]c(=O)[nH]c(=O)c1Br`: 106%.
The same measure for `COc1cc(CCO)ccc1O`: 96.6%; for `CCOc1ccc(CCNC(=O)c2cc3cc(OC)ccc3oc2=O)cc1OCC`: 107%.
The figure for `COc1ccc(NC(=O)Cn2c(=O)cc(C(=O)N3CCCC3)c3ccccc32)cc1Cl` is 107%.
With `CCOc1ccc(-c2oc3ccccc3c(=O)c2OS(=O)(=O)c2ccc(C)cc2)cc1`, the cell viability was determined as 102%.
The same measure for `CC(NC(=O)Nc1ccccc1)C(=O)O` (centres undefined): 96.4%; for `CCOC(=O)CNC(=O)c1ccc(OC)c([N+](=O)[O-])c1`: 95.3%; for `CCSCCOC(=O)C1=C(C)NC2=C(C(=O)CCC2)C1c1cc(Br)c(O)c(OC)c1` (centres undefined): 95.2%.
The figure for `COc1cc(OC)c2c(c1)OC(c1ccc(OC)c(OC)c1)C(O)C2=O` (centres undefined) is 97%; for `N=c1oc2ccccc2cc1C(=O)Nc1cccc(Cl)c1` it is 83.9%.
As for `CNC(=O)c1cc(=O)n(CC(=O)Nc2ccc(C)cc2Cl)c2ccccc12`, the cell viability was found to be 101%.
As for `Cc1ccc(-c2cc(=O)c3cc(OCC(=O)OC(C)C)ccc3o2)cc1`, the cell viability amounted to 106%.
As for `CCOc1ccc(CCn2c(C34CC5CC(CC(C5)C3)C4)cn3c4c(=O)n(C)c(=O)n(C)c4nc23)cc1OCC`, the cell viability was determined as 96.4%.
The figure for `CCC(=O)Oc1c(-c2ccccc2Cl)oc2ccccc2c1=O` is 101%; for `CCOC(=O)c1c(C)n(-c2ccccc2)c2cc(Br)c(OC)cc12` it is 110%.
The figure for `COCCOC(=O)C1=C(C)NC2=C(C(=O)CC(c3ccc(Cl)cc3)C2)C1c1ccc(O)c(OC)c1` (centres undefined) is 95.8%; for `Nc1c(C(=O)N2CCc3ccccc3C2)sc2nc(-c3ccc4c(c3)OCO4)cc(C(F)(F)F)c12` it is 104%.
The figure for `CCOc1cc2c(cc1/C=C1/NC(=O)N(CC(=O)Nc3ccc(Cl)cc3)C1=O)OCO2` is 97.7%; for `O=C(Cn1c(=O)cc(C(=O)N2CCCCC2)c2ccccc21)NCCc1ccccc1` it is 99.7%; for `COc1cc2[nH]c(=O)c(C(=O)NCc3cccnc3)c(O)c2cc1OC` it is 98.7%.
Turning to `Nc1c(C(=O)NCCc2c[nH]c3ccccc23)sc2nc(-c3ccccn3)ccc12`, the cell viability worked out at 102%.
The same measure for `COc1ccc(NC(=O)C(=O)c2c[nH]c3cc(F)ccc23)cc1`: 95.4%; for `COc1ccc(C[C@H](N)C(=O)O)cc1`: 103%.
As for `COc1ccc(-c2c(-c3ccccc3)cn3ccc4cc(OC)c(OC)cc4c23)cc1OC`, the cell viability was determined as 109%.
The same measure for `COc1ccccc1NC(=O)CSc1nc2c(=O)[nH]cnc2n1C`: 93.1%; for `Cn1c(C(=O)NCc2ccco2)c(Br)c(=O)n(C)c1=O`: 103%; for `C=C(C)C1CCC2(C=O)CCC3(C)C(CCC4C5(C)CCC(=O)C(C)(C)C5CCC43C)C12` (centres undefined): 102%.
Regarding `O=C1CC2(CCCCC2)Oc2ccc(O)cc21`, the cell viability amounted to 107%.
The same measure for `CCN1CCN(Cc2nc3c(c(=O)[nH]c(=O)n3C)n2Cc2c(F)cccc2Cl)CC1`: 98.8%; for `O=c1c(O)c(-c2ccccc2)oc2ccccc12`: 95%; for `COc1ccc2oc(C(Cl)(Cl)Cl)cc(=O)c2c1`: 3.78%.
The same measure for `COc1cc(O)c(C(C)=O)cc1OC`: 99.9%.
The figure for `COC(=O)C1Cc2c([nH]c3ccccc23)C(c2ccccc2OC)N1` (centres undefined) is 102%.
Turning to `COc1ccc(C2CC(=O)c3ccccc3O2)cc1OC` (centres undefined), the cell viability is 109%.
The same measure for `CCOC(=O)C1C(c2cc(OC)c(OC)c(OC)c2)c2cc3c(cc2OC1(C)OC)OCO3` (centres undefined): 92%.
Turning to `CCOC(=O)C(Cc1c[nH]c2ccccc12)NC(=O)c1ccc(C)cc1` (centres undefined), the cell viability was determined as 95.4%.
The figure for `O=C(c1ccco1)N1CCC2(O)CCCCC2C1c1ccc(F)cc1` (centres undefined) is 90.8%.
The figure for `COC(=O)C1=C(C)NC2=C(C(=O)CC(C)(C)C2)C1c1ccc(OC)cc1` (centres undefined) is 92%.
The figure for `Cn1c(C(=O)N2CCOCC2)c(Br)c(=O)n(C)c1=O` is 102%; for `O=C(O)c1cc(S(=O)(=O)N2CCc3ccccc3C2)cs1` it is 100%; for `COc1cc2[nH]c(=O)c3c(C)nc(C)c(C(=O)O)c3c2cc1OC` it is 113%.
As for `Cc1ccc(NC(=O)C(Cc2c[nH]c3ccccc23)NC(=O)OCC(C)C)cc1` (centres undefined), the cell viability amounted to 89%.
The figure for `COc1ccc(C(=O)NCCOc2ccc(C)c(C)c2)c(OC)c1OC` is 95.4%; for `Cc1cccc(C)c1NC(=O)CSc1nc2c(=O)[nH]cnc2n1C` it is 111%; for `CC1(C(=O)O)CCC2(C)CCC3(C)C(=CC(=O)C4C5(C)CCC(OC6OC(C(=O)O)C(O)C(O)C6OC6OC(C(=O)O)C(O)C(O)C6O)CC5CCC43C)C2C1.CC1(C(=O)O)CCC2(C)CCC3(C)C(=CC(=O)C4C5(C)CCC(OC6OC(C(=O)O)C(O)C(O)C6OC6OC(C(=O)O)C(O)C(O)C6O)CC5CCC43C)C2C1.CC1(C(=O)O)CCC2(C)CCC3(C)C(=CC(=O)C4C5(C)CCC(OC6OC(C(=O)O)C(O)C(O)C6OC6OC(C(=O)O)C(O)C(O)C6O)CC5CCC43C)C2C1.[Fe]` (centres undefined) it is 91.5%.
The same measure for `Cc1ccc(-n2c(SCC(=O)Nc3c(C)cc(C)cc3C)nc3c(=O)[nH]cnc32)cc1`: 104%; for `CC(=O)On1cc(F)c(=O)n(CC2CO2)c1=O` (centres undefined): 85.8%; for `COc1ccc(C2NC(C(=O)O)Cc3c2[nH]c2ccccc32)cc1COC(=O)COc1ccc(Cl)cc1Cl` (centres undefined): 85.4%.
The same measure for `O=C(Cn1c(=O)cc(C(=O)N2CCOCC2)c2ccccc21)Nc1cccc(Cl)c1`: 91.7%; for `COC(=O)c1ccccc1NC(=O)CSc1nc2c(=O)[nH]cnc2n1-c1ccc(C)cc1`: 98.2%.
On to `CCOc1cc(C2NC(=O)NC(C)=C2C(=O)OCC(F)(F)F)ccc1O` (centres undefined), for which the cell viability was found to be 83.8%.
The same measure for `Cc1ccc2occ(-c3nc(-c4ccccc4)c(-c4ccccc4)[nH]3)c(=O)c2c1`: 91.7%.
The same measure for `O=C(Cn1c(=O)cc(C(=O)N2CCc3ccccc3C2)c2ccccc21)Nc1ccccc1F`: 105%; for `CN(C)c1n[nH]c(=O)[nH]c1=O`: 88.1%.
Take `COc1cc(C(=O)NCCOc2ccccc2-c2ccccc2)cc(OC)c1OC`: the cell viability came out at 94.6%.
The figure for `COc1ccc(CNC(=O)C(=O)Nc2ccccc2C)cc1` is 92.7%.
The same measure for `CCOC(=O)N1CCCc2cc(NCCC(=O)c3ccc(OC)c(OC)c3)ccc21`: 95.3%.
The same measure for `CCOc1ccccc1C1C2CCCCC2(O)CCN1CC(=O)NCc1ccco1` (centres undefined): 87.9%; for `COC(=O)C1=C(C)NC(SC)=C(C#N)C1c1cc(OC)c(OC)c(OC)c1` (centres undefined): 18.3%; for `COC(=O)C1=CN(Cc2ccc(F)cc2)C=C(C(=O)OC)C1c1cc(OC)c(OC)c(OC)c1`: 103%.
As for `CC1(C)CC(C(CC(=O)O)Cc2ccccc2)CCO1` (centres undefined), the cell viability came out at 92.2%.
The same measure for `CCCNC(=O)c1cc(=O)n(CC(=O)Nc2ccc(F)cc2F)c2ccccc12`: 94.6%; for `CCc1cccc(C)c1NC(=O)c1ccc(OC)c(OC)c1`: 101%; for `Cc1nc(NC(=O)c2ccc3c(c2)OCO3)sc1C`: 88.6%.
The same measure for `COCCOC(=O)c1c(C)n(CCCNc2ccc(Cl)cc2[N+](=O)[O-])c2c1cc(O)c1ccccc12`: 88.3%; for `COc1ccc(C(=O)CCNc2ccccc2C(=O)NC2CC2)cc1OC`: 102%; for `Cc1ccc2c(CN3CCN(CC(=O)Nc4cc(Cl)ccc4C)CC3)cc(=O)oc2c1`: 102%.
The figure for `O=C(/C=C/c1ccccc1O)c1cc(O)ccc1O` is 74.3%.
For `COCCOC(=O)c1c(C)n(CCNc2ccc(C(F)(F)F)cc2[N+](=O)[O-])c2c1cc(O)c1ccccc12`, the cell viability worked out at 108%.
The figure for `CCOC(=O)Cn1ncc2ccccc2c1=O` is 93.1%.
